Source: patent US20170226225A1 (Merck Sharp & Dohme, published 2017)

Amino acid sequences for entries named in this document (tags omitted). A change or cut given only in a name is not applied to a line headed by its entry.
UniProt P00742: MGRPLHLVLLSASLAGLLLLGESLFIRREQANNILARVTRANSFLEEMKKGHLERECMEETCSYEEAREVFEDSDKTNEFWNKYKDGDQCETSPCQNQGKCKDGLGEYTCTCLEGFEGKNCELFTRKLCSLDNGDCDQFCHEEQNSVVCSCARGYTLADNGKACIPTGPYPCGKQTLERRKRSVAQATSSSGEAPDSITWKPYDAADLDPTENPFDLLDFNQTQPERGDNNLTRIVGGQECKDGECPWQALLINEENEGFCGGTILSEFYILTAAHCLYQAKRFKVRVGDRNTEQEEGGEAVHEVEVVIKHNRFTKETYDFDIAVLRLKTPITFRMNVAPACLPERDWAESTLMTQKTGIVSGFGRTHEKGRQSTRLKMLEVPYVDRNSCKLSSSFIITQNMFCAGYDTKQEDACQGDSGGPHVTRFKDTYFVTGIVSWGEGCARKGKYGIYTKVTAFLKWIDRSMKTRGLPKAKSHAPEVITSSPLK
UniProt P00740: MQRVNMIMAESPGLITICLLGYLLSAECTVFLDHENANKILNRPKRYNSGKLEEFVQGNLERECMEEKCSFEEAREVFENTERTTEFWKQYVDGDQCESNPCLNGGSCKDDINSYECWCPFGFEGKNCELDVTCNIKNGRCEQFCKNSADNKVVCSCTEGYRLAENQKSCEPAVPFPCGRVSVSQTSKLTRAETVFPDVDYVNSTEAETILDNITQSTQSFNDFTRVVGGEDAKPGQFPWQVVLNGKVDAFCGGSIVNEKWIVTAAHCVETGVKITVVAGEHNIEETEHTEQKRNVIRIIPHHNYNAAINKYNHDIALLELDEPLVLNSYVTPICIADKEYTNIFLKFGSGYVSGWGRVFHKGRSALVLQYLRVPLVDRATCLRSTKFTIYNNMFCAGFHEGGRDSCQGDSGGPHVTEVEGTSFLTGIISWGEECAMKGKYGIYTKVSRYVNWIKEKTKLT

Columns and labels:
[1] = target: Human Factor Xa Protease (human) (UniProt P00742); assay: SPR (Biacore T200): antibody captured on anti-human IgG (Fc) chip, analyte at 500 nM (single concentration), anti-RSV IgG4 as reference
[2] = target: Human Factor IXa Protease (human) (UniProt P00740); assay: as above
[3] = target: Human Factor Xa Protease (human) (UniProt P00742); assay: SPR (Biacore T200), mAb captured on anti-human IgG (Fc) chip, protein as analyte
[4] = target: Human Factor IXa Protease (human) (UniProt P00740); assay: as above

Measured: binding

B1: αFXI-13654p-IgG4 (S228P) (K-)/kappa (antibody, V domains shown)
VH: EVQLVESGGGLVKPGGSLRLSCAASGFTFSSYSMNWVRQAPGKGLEWVSSISSSSSYIYYADSVKGRFTISRDNAKNSLYLQMNSLRAEDTAVYYCARSYYDYDQGYGMDVWGQGTTVTVSS
VL: DIQMTQSPSSVSASVGDRVTITCRASQGISSWLAWYQQKPGKAPKLLIYAASSLQSGVPSRFSGSGSGTDFTLTISSLQPEDFATYYCQQVNSYPITFGGGTKVEIKR
notes: Human IgG4 S228P heavy chain lacking the C-terminal lysine; kappa light chain
no binding (tested: 500 nM): all assays above

These are yes or no findings as the source states them, for the method shown.
